According to patent US20230183748A1, “Use of FOXP3 Enhancers to Modulate Regulatory T Cells” (St. Jude Children's Research Hospital, Inc., priority 2021, published 2023):
For at least one compound, name, drawing or mass did not settle the structure.

System: Foxp3 expression in iTreg cells
Assay: Stability of Foxp3 expression in iTreg cells in vitro
Assay type: cell-based, mouse
Conditions: ASC in Treg cell-inducing medium; iTreg cells of all the genotypes (WT, ΔCNS0, ΔCNS3, ΔCNS0,3)

Structure (SMILES): O=C1O[C@H]([C@@H](O)CO)C(O)=C1O [ASC, ascorbic acid (ASC)-2-phosphate]
- Effect on stability of Foxp3 expression: stabilized Foxp3 expression
